# Test results reported in patent US20050255469A1, “Human 5-ht7 receptor promoter sequence” (priority 2002, published 2005).
# At least one compound was matched to its structure with a doubt left.
# System: 5-HT7 receptor promoter
# Experiment: transient transfection luciferase reporter assay with 5-HT7 promoter constructs in HEK293T cells, barbiturate treatment
# Format: cell-based, human
# Protocol: HEK293T cells were maintained in Dulbecco's modified Eagle's medium supplemented with 100 units/ml penicillin, 100 μg/ml streptomycin, and 10% newborn calf serum. These cells were maintained at 37° C. in a humidified atmosphere of 5% CO2.
# 10^5 cells/cm^2 in 24-well dishes were transfected with 150 ng promoter plasmid and 50 ng neogal (served as an internal control), using the standard calcium phosphate coprecipitation method. 24 hours after transfection, cells were washed once with PBSA and lysed in 150 μl 100 mM potassium phosphate (pH 7.8), 0.2% Triton X-100. The samples were analyzed for luciferase activity as described previously (Vanden Berghe et al., 1998). β-Galactosidase activity was measured using Galacto Star (Tropix) as substrate. For the barbiturate experiments, treatment with different barbiturates started 24 hours after transfection of the cells
# According to MatInspector, a putative BARBIE (Barbiturate Inducible Element) is present in the promoter region of the 5-HT7 receptor. To investigate the possible influence of barbiturates on 5-HT7 promoter activity, we transiently transfected HEK293T cells with the different promoter constructs and treated the transfected cells with barbiturates for 24 h (FIG. 6a). […] The reduction varied from 30-50% depending on the promoter construct used and the type of barbiturate.
smiles,measurement,setting,value
CCC1(c2ccccc2)C(=O)NC(=O)NC1=O [Phenobarbital],promoter activity after 52 hours,"time course, 2000luc+ and 1000luc+, 1.5 mM, 52 hours",increased again
same,effect on 5-HT7 receptor promoter activity,"transient transfection, 1.5 mM barbiturate, 24 h",repress 5-HT7 receptor promoter activity
